No constants are given. Whether binding was seen depends on the method and setting. Binding seen in cells or lysates may run through a third protein. These calls come from enrichment with a bait or labelling near it, and not all partners need be listed.
Tests used:
[1] = biological target: Neurobeachin (mouse (endogenous in mouse brain)) (UniProt Q9EPN1); test: affinity purification with mass spectrometry; IP with α-Nbea antibody from the P2+microsomes fraction of P84 mouse brain solubilised with 1% n-Dodecyl β-D-maltoside (DDM), protein A/G agarose, 4°C; controls: empty beads, E18 KO IP; LTQ-Orbitrap
[2] = biological target: Neurobeachin (mouse (endogenous in mouse brain)) (UniProt Q9EPN1); test: affinity purification with mass spectrometry; IP with α-Nbea antibody from E18 mouse brain homogenates solubilised with 1% Triton X-100, protein A/G agarose, 4°C; controls: Nbea KO brain, pre-immune serum, empty beads; SDS-PAGE, trypsin, LTQ-Orbitrap

Protein sequences, listed by entry. Tags and fused reporters are not part of them.
UniProt Q9EPN1: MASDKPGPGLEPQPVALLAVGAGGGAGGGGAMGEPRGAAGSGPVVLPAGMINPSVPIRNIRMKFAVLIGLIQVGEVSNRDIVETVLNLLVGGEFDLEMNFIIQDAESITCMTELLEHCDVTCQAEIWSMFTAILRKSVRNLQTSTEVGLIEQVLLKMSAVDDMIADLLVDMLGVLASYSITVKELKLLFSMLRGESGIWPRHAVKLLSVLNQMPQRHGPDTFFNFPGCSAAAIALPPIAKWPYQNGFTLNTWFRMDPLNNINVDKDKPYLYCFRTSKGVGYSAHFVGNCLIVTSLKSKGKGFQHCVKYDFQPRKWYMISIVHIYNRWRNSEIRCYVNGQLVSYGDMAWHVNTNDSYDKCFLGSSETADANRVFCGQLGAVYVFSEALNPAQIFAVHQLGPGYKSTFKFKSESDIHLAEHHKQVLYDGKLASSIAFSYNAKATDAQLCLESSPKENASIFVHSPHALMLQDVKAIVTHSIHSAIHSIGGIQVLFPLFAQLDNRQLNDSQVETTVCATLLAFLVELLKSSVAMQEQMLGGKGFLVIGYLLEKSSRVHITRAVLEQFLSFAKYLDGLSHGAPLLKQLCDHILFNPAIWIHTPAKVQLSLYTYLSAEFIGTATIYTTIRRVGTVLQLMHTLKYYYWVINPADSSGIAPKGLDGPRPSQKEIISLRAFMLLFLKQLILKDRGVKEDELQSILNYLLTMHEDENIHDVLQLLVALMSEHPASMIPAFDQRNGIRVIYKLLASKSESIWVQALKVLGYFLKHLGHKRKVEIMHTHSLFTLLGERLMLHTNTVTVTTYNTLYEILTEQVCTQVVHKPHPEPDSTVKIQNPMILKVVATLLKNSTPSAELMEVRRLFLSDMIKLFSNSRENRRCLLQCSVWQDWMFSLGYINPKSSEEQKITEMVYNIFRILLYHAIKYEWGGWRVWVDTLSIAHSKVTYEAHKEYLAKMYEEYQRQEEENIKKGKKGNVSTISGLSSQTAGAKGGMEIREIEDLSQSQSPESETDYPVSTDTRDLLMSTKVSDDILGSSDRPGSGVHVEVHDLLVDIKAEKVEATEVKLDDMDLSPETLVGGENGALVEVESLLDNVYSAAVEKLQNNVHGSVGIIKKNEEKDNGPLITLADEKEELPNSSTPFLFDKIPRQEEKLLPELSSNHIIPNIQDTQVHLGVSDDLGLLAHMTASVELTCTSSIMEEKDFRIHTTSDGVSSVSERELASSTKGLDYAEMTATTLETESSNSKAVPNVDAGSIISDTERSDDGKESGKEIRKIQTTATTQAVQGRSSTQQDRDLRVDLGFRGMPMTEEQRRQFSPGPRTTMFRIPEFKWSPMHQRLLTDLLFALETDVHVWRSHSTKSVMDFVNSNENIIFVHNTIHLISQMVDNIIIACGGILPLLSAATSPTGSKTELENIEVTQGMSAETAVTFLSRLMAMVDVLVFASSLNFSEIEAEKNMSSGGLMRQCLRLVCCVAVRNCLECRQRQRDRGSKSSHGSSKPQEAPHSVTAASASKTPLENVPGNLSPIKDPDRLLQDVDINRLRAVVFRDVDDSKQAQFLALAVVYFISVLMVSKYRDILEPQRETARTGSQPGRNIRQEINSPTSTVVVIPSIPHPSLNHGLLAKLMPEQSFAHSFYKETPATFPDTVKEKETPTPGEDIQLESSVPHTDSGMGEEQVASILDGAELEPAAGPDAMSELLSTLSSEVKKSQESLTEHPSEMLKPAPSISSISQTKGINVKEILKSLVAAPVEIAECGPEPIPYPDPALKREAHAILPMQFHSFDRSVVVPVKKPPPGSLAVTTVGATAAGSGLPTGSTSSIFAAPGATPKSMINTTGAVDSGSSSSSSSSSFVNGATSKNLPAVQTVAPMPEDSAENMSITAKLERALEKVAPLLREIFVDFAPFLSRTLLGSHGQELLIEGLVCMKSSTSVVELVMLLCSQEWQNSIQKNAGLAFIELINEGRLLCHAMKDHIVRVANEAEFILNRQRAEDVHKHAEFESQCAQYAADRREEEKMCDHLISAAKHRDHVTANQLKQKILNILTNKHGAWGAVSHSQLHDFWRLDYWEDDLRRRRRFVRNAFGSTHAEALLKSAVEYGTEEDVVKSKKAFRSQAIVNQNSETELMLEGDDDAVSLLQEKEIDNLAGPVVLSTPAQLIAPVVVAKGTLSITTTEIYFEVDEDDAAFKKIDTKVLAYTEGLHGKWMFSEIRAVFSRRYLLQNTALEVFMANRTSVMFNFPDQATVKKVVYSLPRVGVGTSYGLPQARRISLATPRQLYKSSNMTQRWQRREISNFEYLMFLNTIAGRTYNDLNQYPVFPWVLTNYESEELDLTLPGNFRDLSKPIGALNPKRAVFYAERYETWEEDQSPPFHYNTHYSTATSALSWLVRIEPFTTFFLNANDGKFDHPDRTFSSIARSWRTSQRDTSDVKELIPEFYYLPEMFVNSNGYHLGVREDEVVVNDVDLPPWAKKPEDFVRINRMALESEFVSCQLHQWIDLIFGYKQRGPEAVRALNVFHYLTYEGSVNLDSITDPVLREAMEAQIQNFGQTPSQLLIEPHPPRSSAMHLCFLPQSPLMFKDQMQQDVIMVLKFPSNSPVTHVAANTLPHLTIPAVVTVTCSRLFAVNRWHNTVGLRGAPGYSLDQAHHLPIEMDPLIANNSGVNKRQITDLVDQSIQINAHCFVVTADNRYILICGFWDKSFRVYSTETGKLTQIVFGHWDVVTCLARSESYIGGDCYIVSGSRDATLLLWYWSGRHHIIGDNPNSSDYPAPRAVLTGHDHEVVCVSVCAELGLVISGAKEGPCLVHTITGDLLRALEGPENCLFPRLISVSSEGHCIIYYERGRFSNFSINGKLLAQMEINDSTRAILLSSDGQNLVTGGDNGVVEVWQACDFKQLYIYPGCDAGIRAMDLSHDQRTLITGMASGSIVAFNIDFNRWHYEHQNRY

B1: Serine/threonine-protein kinase Nek 9 (protein, UniProt Q8K1R7 1-984)
chain: MSVLGEYERHCDSINSDFGSESGGGGDSGPGPSAVPGPRAGGGAAEQEELHYIPIRVLGRGAFGEATLYRRTEDDSLVVWKEVDLTRLSEKERRDALNEIVILALLQHDNIIAYYNHFMDNTTLLIELEYCNGGNLYDKILRQKDKLFEEEMVVWYLFQIVSAVSCIHKAGILHRDIKTLNIFLTKANLIKLGDYGLAKKLNSEYSMAETLVGTPYYMSPELCQGVKYNFKSDIWAVGCVIFELLTLKRTFDATNPLNLCVKIVQGIRAMEVDSSQYSLELIQLVHACLDQDPEQRPAADALLDLPLLRTRRREMEEKVTLLNAPTKRPRSSTVTEAPIAVVTSRTSEVYVWGGGKSTPQKLDVIKSGCSARQVCAGNTHFAVVTVEKELYTWVNMQGGTKLHGQLGHGDKASYRQPKHVEKLQGKAIHQVSCGDDFTVCVTDEGQLYAFGSDYYGCMGVDKVSGPEVLEPMQLNFFLSNPVEQVSCGDNHVVVLTRNKEVYSWGCGEYGRLGLDSEEDYYTPQRVDVPKALIIVAVQCGCDGTFLLTQSGKVLACGLNEFNKLGLNQCMSGIINHEAYHEVPYTTSFTLAKQLSFYKIRTIAPGKTHTAAIDERGRLLTFGCNKCGQLGVGNYKKRLGINLLGGPLGGKQVIRVSCGDEFTIAATDDNHIFAWGNGGNGRLAMTPTERPHGSDICTSWPRPIFGSLHHVPDLSCRGWHTILIVEKVLNSKTIRSNSSGLSIGTVVQSSSPGGGIGGGGGGGGGGGGEEEDSQQESETPDPSGGFRGTMEADRGMEGLISPTEAVGNSCGASSSCPGWLRKELENAEFIPMPDSPAPLSAAFSQSEKDTLPYEELQGLKVASEVPPEPQRAAGAWPPRLDPAVPCVGKALTSAACACSALQVEVDRLQALVLKCLEEQQKLQQENLQMFTQLQKLNKKLEGGQQVGMHSRGTQTAKEEMEMDPKPDLDSESWCLLGTDSCRPSL
**Q.** Which results are given for B1?
**A.** binding [1]: binds; binding [2]: binds

Source: article PMC3380004
